# From the supplement of paper PMC12067093, “Discovery and optimisation of a covalent ligand for TRIM25 and its application to targeted protein ubiquitination” (Chemical Science, 2025)
# This is one part of the list.
# Compound: CC1Cc2ccccc2N1C(=O)C1CCCN(C1)C(=O)CCl (mixture of isomers) [TRIM25 ligand 11 (diastereomer mixture)]
# Assay: probe-labelled cysteine peptide fold change vs DMSO (competition) (log2 fold change); higher = less target engagement (more negative = stronger competition)
# Conditions: THP-1, incubation time: 4 h
# 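Note: competitive chemoproteomic profiling in live THP-1 cells with an iodoacetamide desthiobiotin (IA-DTB) probe, comparing probe-labelled peptide intensities in compound-treated cells against DMSO-treated controls.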
Target,probe-labelled cysteine peptide fold change (10 µM),probe-labelled cysteine peptide fold change (50 µM)
ATRX_P46100_605_GADCQEVPQDK (UniProt P46100),-0.192,-0.41
BAZ1B_Q9UIG0_1420_QVFTNAEVYNCR (UniProt Q9UIG0),0.172,0.044
BPNT1_O95861_243_ASAYVFASPGCKK (UniProt O95861),-0.283,-0.27
BCKDHA_P12694_178_DYPLELFMAQCYGNISDLGK (UniProt P12694),-0.0403,-0.212
ATRX_P46100_1718_ALVDPGPDFVVCDEGHILK (UniProt P46100),0.145,0.0955
BIRC2_Q13490_315_CWESGDDPWVEHAK (UniProt Q13490),0.127,0.0958
AVEN_Q9NQS1_251_SVAAGCPVLLGK (UniProt Q9NQS1),0.0433,-0.12
BABAM2_Q9NXR7_245_IEHALGGSSALHIPAFPGGGCLIDYVPQVCHLLTNK (UniProt Q9NXR7),0.185,-0.246
BPNT1_O95861_249_KWDTCAPEVILHAVGGK (UniProt O95861),-0.0317,0.00684
BIRC6_Q9NR09_874_IQHIKDPQDTITSLILLPPDILDNREDDCEEPIEDMQLTSK (UniProt Q9NR09),-0.0682,-0.286
BCAP29_Q9UHQ4_171_SHGKDEECVLEAENK (UniProt Q9UHQ4),0.0274,-0.21
BAZ1B_Q9UIG0_497_SALSCVISK (UniProt Q9UIG0),-0.148,-0.448
AZU1_P20160_222_RGGICNGDGGTPLVCEGLAHGVASFSLGPCGR (UniProt P20160),-0.0724,-0.0963
BAZ1A_Q9NRL2_1195_TVPEGDWFCPECRPK (UniProt Q9NRL2),0.0397,0.0567
BDH2_Q9BUT1_93_LDVLFNVAGFVHHGTVLDCEEK (UniProt Q9BUT1),0.228,0.217
BMS1_Q14692_757_FLVEAPHDWDLEEVMNSIRDCFVTGK (UniProt Q14692),-0.215,-0.385
AXL_P30530_588_SELEDFLSEAVCMK (UniProt P30530),0.132,0.0716
AZU1_P20160_52_HFCGGALIHAR (UniProt P20160),-0.072,0.156
BOP1_Q14137_690_YPLFASGSDDGSVIVCHGMVYNDLLQNPLLVPVK (UniProt Q14137),0.0324,-0.00224
BIRC2_Q13490_110_QLYPSCSFIQNLVSASLGSTSK (UniProt Q13490),-0.408,-0.0694

# Two entries from above in a different format.
Target | probe-labelled cysteine peptide fold change (10 µM) | probe-labelled cysteine peptide fold change (50 µM)
BAZ1B_Q9UIG0_497_SALSCVISK (UniProt Q9UIG0) | -0.148 | -0.448
AZU1_P20160_222_RGGICNGDGGTPLVCEGLAHGVASFSLGPCGR (UniProt P20160) | -0.0724 | -0.0963

# Next part.

Target,probe-labelled cysteine peptide fold change (10 µM),probe-labelled cysteine peptide fold change (50 µM)
BCAT2_O15382_147_LCLPSFDKLELLECIR (UniProt O15382),-0.15,0.04
BAZ1B_Q9UIG0_1213_AFHLFCLRPALYEVPDGEWQCPACQPATAR (UniProt Q9UIG0),0.117,-0.0991
AURKB_Q96GD4_191_TATIMEELADALMYCHGKK (UniProt Q96GD4),-0.412,-0.0919
BOD1L1_Q8NFC6_1170_TCTADSK (UniProt Q8NFC6),-0.0161,-0.0752
BAZ1A_Q9NRL2_105_LHEICDDIFAYVK (UniProt Q9NRL2),-0.0232,0.0588
AXL_P30530_852_DSCSCLTAAEVHPAGR (UniProt P30530),0.197,-0.0355
AUP1_Q9Y679_124_VLISNHVTPFDHNIVNLLTTCSTPLLNSPPSFVCWSR (UniProt Q9Y679),0.143,0.389
BCAT2_O15382_342_EVFGSGTACQVCPVHR (UniProt O15382),-0.148,-0.0849
BIRC6_Q9NR09_3108_AFHDMGGVQLICNNMVTSTR (UniProt Q9NR09),0.248,-0.0924
BIRC6_Q9NR09_355_HSPNCPFVK (UniProt Q9NR09),-0.079,-0.0323
BABAM2_Q9NXR7_245+254_IEHALGGSSALHIPAFPGGGCLIDYVPQVCHLLTNK (UniProt Q9NXR7),0.114,-0.133
BAG2_O95816_142_SHLMSLYSACSSEVPHGPVDQK (UniProt O95816),0.257,0.0507
BPNT1_O95861_243_ASAYVFASPGCK (UniProt O95861),-0.0394,-0.259
BAG5_Q9UL15_157+166_ICAVQEIIEDCMK (UniProt Q9UL15),0.312,0.174
BIRC6_Q9NR09_390_ISCFGSGSCPHFLAAATK (UniProt Q9NR09),0.166,-0.00212
ATRX_P46100_220_DSDGMDEQCR (UniProt P46100),-0.165,0.07
ATRX_P46100_1814_AHILYEMLAGCVQR (UniProt P46100),-0.025,0.133
BCAR3_O75815_408_GSDSQLCPKPPPKPCK (UniProt O75815),-0.138,-0.272
BICRA_Q9NZM4_1382_KPLGTAPHCPR (UniProt Q9NZM4),0.0732,0.165
BPTF_Q12830_1471_CELVSGESTGNCEDRLPVK (UniProt Q12830),-0.109,-0.152
